According to patent US20240270749A1, “1,2,4-TRIAZOLO[1,5-A]PYRIMIDINE-BASED SLC16A3 INHIBITORS AND THEIR THERAPEUTIC USE” (CEMM - FORSCHUNGSZENTRUM FÜR MOLEKULARE MEDIZIN GMBH, priority 2021, published 2024):
Some entries share one result that the patent states for a list of compounds.

Test system: HAP1 SLC16A1^−/− cells
Test: Synthetic lethality guided viability screening (CellTiter Glo), HAP1 SLC16A1-/- cells (SLC16A3-dependent)
Type: cell-based
Experimental: Compounds were printed to individual wells of 384 well plates (Corning) with Echo acoustic liquid dispenser (Labcyte). HAP1 cells were seeded using a dispenser (Thermo Fischer Scientific) in density 1,000 cells per well in 50 μl. As controls, DMSO or Bortezomib treatments were used. Viability of cells was assessed after 72 hours with CellTiter Glo (Promega) and % of controls were calculated based on RLU values in DMSO (100%) and Bortezomib (0%) wells. First screening was performed in 10 μM final concentration. Second screening was performed in technical duplicates, in 4 point dose response setting, with concentrations ranging from 13-0.5 μM. Third screening was performed in technical triplicates in 6 point dose response setting, with concentrations ranging from 27-0.11 μM. LAMA84 cells were used in density 3,000 cells per well. AZD3965, BAY-8002, syrosingopine and compounds obtained from third party vendors were tested in 96 well plates, with 2,500 cells per well with manual seeding and treatment. Compound efficacy was determined either by comparing % of control, or by IC50 estimation based on dose response curves (calculated with R package drc, or with GraphPad Prism).
Table 1: Results of synthetic lethality guided chemical screening assay. HAP1 WT, HAP1 SLC16A1^−/− or HAP1 SLC16A3^−/− cell lines were treated with presented compounds for 72 hours and viability was determined by Cell titer glo assay (Promega). Data are presented either as a percentage of viability in HAP1 SLC16A1^−/− cells compared to controls (DMSO=100% and Bortezomib=0%) upon single dose treatment (10 μM) or as IC50 values obtained from dose response curves.

Compound | effect on viability of HAP1 SLC16A1^−/− cells (in words)
Cc1ccc(NC(=O)CCc2c(C)nc3nc(C(F)(F)F)nn3c2C)cc1 [Compound 1] | potent inhibitory effect on SLC16A3
Cc1cc(C)cc(NC(=O)CCc2c(C)nc3nc(C(F)(F)F)nn3c2C)c1 [Compound 2] | potent inhibitory effect on SLC16A3
CSc1nc2nc(C)c(CCC(=O)Nc3ccc(C)cc3)c(C)n2n1 [Compound 3] | potent inhibitory effect on SLC16A3
CSc1nc2nc(C)c(CCC(=O)Nc3cc(C)cc(C)c3)c(C)n2n1 [Compound 4] | potent inhibitory effect on SLC16A3
Cc1cc(NC(=O)CCc2c(C)nc3nc(C(F)(F)F)nn3c2C)ccc1N1CCN(C)CC1 [Compound 5] | potent inhibitory effect on SLC16A3
Cc1nc2nc(C(F)(F)F)nn2c(C)c1CCC(=O)Nc1ccc(S(=O)(=O)N2CCCC2)cc1 [Compound 6] | potent inhibitory effect on SLC16A3
Cc1nc2nc(C(F)(F)F)nn2c(C)c1CCC(=O)Nc1ccncc1 [Compound 7] | potent inhibitory effect on SLC16A3
Cc1nc2nc(C(F)(F)F)nn2c(C)c1CCC(=O)Nc1cnc2ccccc2c1 [Compound 8] | potent inhibitory effect on SLC16A3
Cc1nc2ncnn2c(C)c1CCC(=O)Nc1ccc(S(=O)(=O)N2CCCCCC2)cc1 [Compound 9] | potent inhibitory effect on SLC16A3
CCOc1ccc(NC(=O)CCc2c(C)nc3ncnn3c2C)cc1 [Compound 10] | potent inhibitory effect on SLC16A3
Cc1nc2nc(C)c(CCC(=O)Nc3ccc(Br)c(C)c3)c(C)n2n1 [Compound 11] | potent inhibitory effect on SLC16A3
CCc1cccc(NC(=O)CCc2c(C)nc3nc(C)nn3c2C)c1 [Compound 12] | potent inhibitory effect on SLC16A3
Cc1nc2nc(C)c(CCC(=O)Nc3ccc(C)c(C)c3)c(C)n2n1 [Compound 13] | potent inhibitory effect on SLC16A3
CCc1ccc(NC(=O)CCc2c(C)nc3nc(C)nn3c2C)cc1 [Compound 14] | potent inhibitory effect on SLC16A3
Cc1nc2nc(C)c(CCC(=O)Nc3ccc(Br)cc3)c(C)n2n1 [Compound 16] | potent inhibitory effect on SLC16A3
COc1ccc(NC(=O)CCc2c(C)nc3nc(C)nn3c2C)cc1 [Compound 17] | potent inhibitory effect on SLC16A3
Cc1nc2nc(C(F)(F)F)nn2c(C)c1CCC(=O)Nc1cccnc1 [Compound 18] | potent inhibitory effect on SLC16A3
Cc1nc2nc(C(F)(F)F)nn2c(C)c1CCC(=O)Nc1ccccc1 [Compound 19] | potent inhibitory effect on SLC16A3
